Experimental findings from the supplement of paper PMC10849652 are described below.

The chains behind the UniProt entries cited, without tags or fusion partners. Where a name states a change or a piece, a line headed by the entry shows the natural chain unless it says otherwise.
UniProt Q15750: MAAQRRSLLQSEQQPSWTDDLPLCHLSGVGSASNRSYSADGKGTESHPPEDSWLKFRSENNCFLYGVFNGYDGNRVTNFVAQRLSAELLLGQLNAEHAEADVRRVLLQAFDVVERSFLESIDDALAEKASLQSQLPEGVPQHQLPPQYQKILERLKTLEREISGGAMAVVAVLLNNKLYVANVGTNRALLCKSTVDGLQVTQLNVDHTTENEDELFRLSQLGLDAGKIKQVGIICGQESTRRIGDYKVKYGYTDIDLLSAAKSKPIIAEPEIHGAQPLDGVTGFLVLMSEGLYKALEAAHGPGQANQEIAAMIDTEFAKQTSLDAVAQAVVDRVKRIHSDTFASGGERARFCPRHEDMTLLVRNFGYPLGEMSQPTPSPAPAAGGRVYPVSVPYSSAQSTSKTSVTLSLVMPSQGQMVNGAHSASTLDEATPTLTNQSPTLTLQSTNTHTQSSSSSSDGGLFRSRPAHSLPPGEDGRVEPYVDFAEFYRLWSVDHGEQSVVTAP
UniProt P61956, whole entry, looked up: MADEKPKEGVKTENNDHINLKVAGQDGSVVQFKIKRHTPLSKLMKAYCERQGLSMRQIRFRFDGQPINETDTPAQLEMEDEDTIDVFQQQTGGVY
UniProt Q96I99: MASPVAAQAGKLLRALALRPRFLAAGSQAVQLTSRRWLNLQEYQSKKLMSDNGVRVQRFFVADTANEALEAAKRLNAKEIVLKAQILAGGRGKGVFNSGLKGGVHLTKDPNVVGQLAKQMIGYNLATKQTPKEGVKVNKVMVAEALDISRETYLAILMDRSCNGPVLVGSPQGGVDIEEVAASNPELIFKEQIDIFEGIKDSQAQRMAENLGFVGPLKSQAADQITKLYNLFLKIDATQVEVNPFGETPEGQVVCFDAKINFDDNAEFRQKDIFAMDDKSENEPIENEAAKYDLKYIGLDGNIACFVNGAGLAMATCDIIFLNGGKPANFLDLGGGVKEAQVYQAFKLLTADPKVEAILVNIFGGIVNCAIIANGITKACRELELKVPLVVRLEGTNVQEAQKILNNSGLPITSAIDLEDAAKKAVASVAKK
UniProt P55854, whole entry, looked up: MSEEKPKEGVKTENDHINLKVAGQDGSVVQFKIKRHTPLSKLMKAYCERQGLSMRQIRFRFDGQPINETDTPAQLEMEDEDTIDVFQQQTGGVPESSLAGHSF
UniProt Q9H7L9: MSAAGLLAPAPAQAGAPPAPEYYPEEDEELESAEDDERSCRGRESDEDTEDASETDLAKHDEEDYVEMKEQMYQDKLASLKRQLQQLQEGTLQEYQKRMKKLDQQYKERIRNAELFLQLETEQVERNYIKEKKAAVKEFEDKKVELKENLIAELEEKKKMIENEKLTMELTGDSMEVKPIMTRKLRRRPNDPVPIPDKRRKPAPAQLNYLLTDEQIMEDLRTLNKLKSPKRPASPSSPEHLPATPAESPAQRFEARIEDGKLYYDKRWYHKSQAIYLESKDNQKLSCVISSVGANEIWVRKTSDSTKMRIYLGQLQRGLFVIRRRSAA
UniProt Q9Y2Z0: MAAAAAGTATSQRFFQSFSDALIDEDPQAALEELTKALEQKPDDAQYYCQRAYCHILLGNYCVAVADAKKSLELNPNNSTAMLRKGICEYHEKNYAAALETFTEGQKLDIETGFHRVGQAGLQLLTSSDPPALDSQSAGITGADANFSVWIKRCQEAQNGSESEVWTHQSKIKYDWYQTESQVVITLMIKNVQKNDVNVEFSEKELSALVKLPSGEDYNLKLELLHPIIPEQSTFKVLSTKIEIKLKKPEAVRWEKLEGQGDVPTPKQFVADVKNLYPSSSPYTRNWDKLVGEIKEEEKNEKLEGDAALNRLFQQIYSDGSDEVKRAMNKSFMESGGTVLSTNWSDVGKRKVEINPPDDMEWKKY
UniProt Q13148, whole entry, looked up: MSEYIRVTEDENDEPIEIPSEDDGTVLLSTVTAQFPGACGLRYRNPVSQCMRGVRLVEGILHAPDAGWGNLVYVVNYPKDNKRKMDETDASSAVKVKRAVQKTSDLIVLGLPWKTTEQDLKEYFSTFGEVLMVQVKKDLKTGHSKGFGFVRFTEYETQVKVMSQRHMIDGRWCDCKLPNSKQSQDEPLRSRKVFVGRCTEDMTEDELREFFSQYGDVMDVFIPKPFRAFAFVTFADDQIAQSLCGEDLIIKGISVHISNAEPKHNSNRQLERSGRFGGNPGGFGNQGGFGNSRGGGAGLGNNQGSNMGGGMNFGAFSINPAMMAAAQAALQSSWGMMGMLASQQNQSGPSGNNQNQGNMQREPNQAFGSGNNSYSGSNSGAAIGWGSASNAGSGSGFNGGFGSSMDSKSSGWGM
UniProt Q9UH65: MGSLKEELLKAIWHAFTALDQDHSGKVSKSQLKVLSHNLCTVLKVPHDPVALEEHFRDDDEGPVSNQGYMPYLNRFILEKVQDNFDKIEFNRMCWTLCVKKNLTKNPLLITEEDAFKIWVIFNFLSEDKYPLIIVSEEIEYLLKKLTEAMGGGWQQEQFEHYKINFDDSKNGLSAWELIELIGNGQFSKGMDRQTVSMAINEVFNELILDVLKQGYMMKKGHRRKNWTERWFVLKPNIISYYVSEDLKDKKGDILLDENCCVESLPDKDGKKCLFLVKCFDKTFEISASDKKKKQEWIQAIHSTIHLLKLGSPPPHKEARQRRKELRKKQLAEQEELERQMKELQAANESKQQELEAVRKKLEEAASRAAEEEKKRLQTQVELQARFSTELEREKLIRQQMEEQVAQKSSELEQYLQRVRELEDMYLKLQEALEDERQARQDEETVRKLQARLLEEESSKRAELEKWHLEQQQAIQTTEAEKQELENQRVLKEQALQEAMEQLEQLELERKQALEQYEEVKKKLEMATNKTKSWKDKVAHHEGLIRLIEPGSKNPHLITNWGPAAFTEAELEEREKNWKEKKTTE
UniProt O14662: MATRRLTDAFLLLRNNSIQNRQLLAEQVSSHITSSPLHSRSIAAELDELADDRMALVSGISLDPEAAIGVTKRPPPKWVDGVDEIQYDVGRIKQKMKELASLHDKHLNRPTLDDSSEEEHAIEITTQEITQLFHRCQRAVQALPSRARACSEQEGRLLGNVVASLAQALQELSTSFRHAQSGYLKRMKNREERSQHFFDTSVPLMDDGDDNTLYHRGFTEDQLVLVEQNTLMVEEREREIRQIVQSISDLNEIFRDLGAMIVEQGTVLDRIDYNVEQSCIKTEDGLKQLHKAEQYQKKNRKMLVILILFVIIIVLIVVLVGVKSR
UniProt P08247, whole entry, looked up: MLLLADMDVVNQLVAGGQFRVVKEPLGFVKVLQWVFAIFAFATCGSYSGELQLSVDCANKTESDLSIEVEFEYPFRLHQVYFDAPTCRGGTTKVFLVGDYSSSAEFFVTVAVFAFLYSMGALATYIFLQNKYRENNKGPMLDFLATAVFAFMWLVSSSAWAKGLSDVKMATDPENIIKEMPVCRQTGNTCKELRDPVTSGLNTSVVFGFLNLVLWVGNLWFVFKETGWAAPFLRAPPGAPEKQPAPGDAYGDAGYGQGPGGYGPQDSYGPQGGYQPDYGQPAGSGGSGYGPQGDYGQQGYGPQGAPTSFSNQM
UniProt Q9UBI4: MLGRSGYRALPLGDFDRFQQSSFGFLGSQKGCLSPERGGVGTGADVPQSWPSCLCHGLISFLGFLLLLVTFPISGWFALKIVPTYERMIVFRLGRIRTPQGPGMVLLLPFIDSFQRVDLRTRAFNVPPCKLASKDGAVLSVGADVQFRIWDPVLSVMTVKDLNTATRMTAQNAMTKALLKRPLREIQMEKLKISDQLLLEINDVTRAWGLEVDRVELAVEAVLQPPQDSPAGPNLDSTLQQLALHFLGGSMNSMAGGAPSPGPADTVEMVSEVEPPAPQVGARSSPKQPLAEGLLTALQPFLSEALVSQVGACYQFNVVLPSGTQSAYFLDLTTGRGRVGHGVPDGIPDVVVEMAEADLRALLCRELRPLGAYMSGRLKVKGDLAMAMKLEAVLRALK
UniProt Q8N300: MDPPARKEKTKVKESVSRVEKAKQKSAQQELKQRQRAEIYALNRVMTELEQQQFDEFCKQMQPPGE
UniProt O43426, whole entry, looked up: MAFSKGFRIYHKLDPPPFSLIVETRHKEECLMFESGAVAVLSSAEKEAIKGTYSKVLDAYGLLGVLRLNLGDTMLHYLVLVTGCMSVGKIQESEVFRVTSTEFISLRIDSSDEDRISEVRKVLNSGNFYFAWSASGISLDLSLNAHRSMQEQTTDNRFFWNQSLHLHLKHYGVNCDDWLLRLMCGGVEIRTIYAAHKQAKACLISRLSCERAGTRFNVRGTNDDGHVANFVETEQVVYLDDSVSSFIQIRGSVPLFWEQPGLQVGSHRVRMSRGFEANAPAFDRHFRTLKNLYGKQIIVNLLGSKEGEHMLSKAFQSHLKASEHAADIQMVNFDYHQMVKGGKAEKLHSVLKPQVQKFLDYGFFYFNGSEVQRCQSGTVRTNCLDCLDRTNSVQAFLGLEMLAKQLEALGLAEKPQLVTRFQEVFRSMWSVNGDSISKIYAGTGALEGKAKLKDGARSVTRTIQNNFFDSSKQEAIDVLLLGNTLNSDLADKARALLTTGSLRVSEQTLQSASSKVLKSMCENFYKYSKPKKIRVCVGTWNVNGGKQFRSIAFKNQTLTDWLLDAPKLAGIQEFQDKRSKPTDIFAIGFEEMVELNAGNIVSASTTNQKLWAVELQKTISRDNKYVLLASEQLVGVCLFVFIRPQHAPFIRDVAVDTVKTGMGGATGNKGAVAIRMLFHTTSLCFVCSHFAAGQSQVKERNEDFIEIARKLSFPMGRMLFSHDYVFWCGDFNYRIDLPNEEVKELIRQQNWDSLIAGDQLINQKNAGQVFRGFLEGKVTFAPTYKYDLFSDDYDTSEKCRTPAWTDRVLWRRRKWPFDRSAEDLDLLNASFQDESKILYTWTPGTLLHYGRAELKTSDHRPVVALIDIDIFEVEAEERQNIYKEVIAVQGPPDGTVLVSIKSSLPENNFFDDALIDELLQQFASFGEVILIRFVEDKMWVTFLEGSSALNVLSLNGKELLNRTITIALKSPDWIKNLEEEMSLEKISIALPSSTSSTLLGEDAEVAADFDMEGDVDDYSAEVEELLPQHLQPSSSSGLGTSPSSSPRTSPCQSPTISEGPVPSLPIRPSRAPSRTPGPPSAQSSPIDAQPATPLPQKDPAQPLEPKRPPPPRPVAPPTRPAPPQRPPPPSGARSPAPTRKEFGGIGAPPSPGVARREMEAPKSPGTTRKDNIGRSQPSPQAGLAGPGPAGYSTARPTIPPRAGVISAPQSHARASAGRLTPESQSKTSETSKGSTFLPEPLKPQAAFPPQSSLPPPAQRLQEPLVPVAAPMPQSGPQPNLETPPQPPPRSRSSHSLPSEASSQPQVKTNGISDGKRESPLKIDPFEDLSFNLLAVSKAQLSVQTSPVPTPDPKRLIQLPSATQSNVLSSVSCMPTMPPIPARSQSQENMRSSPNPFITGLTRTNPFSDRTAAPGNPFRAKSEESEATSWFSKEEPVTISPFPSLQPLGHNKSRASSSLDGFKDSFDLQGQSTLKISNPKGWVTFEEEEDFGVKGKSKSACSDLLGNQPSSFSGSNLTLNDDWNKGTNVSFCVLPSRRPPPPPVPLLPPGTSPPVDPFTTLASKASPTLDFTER
UniProt Q12846: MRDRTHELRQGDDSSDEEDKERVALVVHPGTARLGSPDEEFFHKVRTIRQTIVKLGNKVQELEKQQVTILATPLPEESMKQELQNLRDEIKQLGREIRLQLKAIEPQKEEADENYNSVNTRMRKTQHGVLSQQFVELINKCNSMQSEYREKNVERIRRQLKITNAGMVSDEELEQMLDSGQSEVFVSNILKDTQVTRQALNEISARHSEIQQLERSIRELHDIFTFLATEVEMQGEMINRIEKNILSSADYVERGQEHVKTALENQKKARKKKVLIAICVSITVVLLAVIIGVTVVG
UniProt Q7RTN6: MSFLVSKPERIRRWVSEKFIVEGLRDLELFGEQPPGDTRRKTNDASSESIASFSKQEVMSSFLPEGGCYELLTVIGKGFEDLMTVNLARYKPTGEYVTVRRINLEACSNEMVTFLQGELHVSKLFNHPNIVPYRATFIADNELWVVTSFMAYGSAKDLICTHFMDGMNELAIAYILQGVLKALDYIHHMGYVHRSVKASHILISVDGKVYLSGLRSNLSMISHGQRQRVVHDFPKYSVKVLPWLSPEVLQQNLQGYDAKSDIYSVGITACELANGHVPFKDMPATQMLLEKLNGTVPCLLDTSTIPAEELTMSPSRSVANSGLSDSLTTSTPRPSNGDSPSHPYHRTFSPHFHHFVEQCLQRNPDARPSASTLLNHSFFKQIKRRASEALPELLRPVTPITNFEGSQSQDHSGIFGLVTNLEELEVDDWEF
UniProt Q8NHG7: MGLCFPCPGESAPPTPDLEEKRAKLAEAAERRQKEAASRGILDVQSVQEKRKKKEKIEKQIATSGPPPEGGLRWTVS
UniProt Q86Y82: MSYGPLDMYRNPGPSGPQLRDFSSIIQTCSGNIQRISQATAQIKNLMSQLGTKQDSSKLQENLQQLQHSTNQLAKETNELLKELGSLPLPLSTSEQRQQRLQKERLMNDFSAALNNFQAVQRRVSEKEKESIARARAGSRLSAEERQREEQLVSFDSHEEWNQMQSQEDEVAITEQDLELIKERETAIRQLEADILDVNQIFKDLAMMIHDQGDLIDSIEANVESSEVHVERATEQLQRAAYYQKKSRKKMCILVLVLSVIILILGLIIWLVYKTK

Some of the results follow.

Compound in this assay: c1cn2cc(-c3ccc4cn[nH]c4c3)nc(Nc3ccc(N4CCOCC4)cc3)c2n1 [entospletinib]
The assay can be described thus: log2 fold change, soluble protein after heating vs DMSO (PISA); higher = thermal stabilisation; K562 cells, 10 uM, 30 min; active = over 0.2 and 3.5 SD of the protein, either way, in both replicates (recomputed). In a few lines: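 Thermal stability values are relative to control samples and come from duplicates. They are expressed as log2 fold changes. For measurement, K562 cells (2×10^6 cells/mL) received 10 μM compound for 30 min, and aliquots were heated for 3 min over 48°C-58°C, pooled, and extracted at 4°C in PBS with 0.5% NP-40. Soluble protein, the supernatant after 21,000xg for 90 min, was quantified by TMTpro 16plex LC-MS/MS with equalised channel sums.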
With STRIP1 (UniProt Q5VSL9), the log2 fold change is inactive: -0.097.

As to TAB1 (UniProt Q15750), the log2 fold change is inactive: 0.029. For SUMO2 (UniProt P61956), the log2 fold change is inactive: 0.089. The figure for STRBP (UniProt Q96SI9) is inactive: 0.068; for SUCLG2 (UniProt Q96I99) it is inactive: -0.048. The figure for SUMO3 isoform 2 (UniProt P55854) is inactive: 0.068; for SUDS3 (UniProt Q9H7L9) it is inactive: -0.063. The figure for SUGT1 (UniProt Q9Y2Z0) is inactive: -0.011; for TARDBP (UniProt Q13148) it is inactive: 0.048; for SWAP70 (UniProt Q9UH65) it is inactive: -0.072. For TAPBP isoform 3 (UniProt O15533), the log2 fold change is inactive: -0.145. On to STX16 isoform 2 (UniProt O14662), for which the log2 fold change was inactive: 0.048. For TAGLN2 isoform 2 (UniProt P37802) the value was inactive: 0.038; for TACO1 (UniProt Q9BSH4), inactive: -0.067. The figure for SYAP1 (UniProt Q96A49) is inactive: -0.038; for STK3 isoform 2 (UniProt Q13188) it is inactive: 0.004; for SYPL1 (UniProt Q16563) it is inactive: 0.036. The figure for STRAP isoform 2 (UniProt Q9Y3F4) is inactive: 0.016.

As for STRIP2 (UniProt Q9ULQ0), the log2 fold change is inactive: -0.128. For SYP (UniProt P08247) the value was inactive: 0.034; for STOML1 (UniProt Q9UBI4), inactive: 0.132; for SVBP (UniProt Q8N300), inactive: 0.064. The figure for SYNCRIP (UniProt O60506) is inactive: 0.115; for SYNJ1 (UniProt O43426) it is inactive: 0.004.

In the case of STX4 (UniProt Q12846), the log2 fold change is inactive: -0.039. For STRADA (UniProt Q7RTN6) the value was inactive: 0.008; for SVIP (UniProt Q8NHG7), inactive: 0.061. As to STRN4 isoform 3 (UniProt Q9NRL3), the log2 fold change is inactive: -0.037. As to STX12 (UniProt Q86Y82), the log2 fold change is inactive: 0.007.
